The whole screen tested about 320,000 compounds, of which about 2,100 (0.66%) were called active. The inconclusive results got no clear call from the source; some entries with a clear call stand among them for comparison. The call rests on the fitted dose curve; in most records, active means well fitted inhibition curve with a large enough effect in the signal ratio, with a control signal flat (not every such curve was filed as active); inconclusive means small, poorly fitted or top-dose-only effect, or effect the other way, or a change in a side signal; inactive means flat fitted curve, though single readings scatter; the % refers to the signal ratio. Where the call is inconclusive, the potency comes from a doubtful curve fit.
experiment: qHTS Assay for Lipid Storage Modulators in Drosophila S3 Cells; conditions: BODIPY lipid droplet fluorescence, 18-24 h, cells fed with added oleic acid; lipid storage change, negative = inhibition: at 46.1 µM (top of the series) unless noted
How it was run: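 Drosophila S3 cells got compounds at several concentrations plus oleic acid (400 uM solution). Laser-scanning cytometry with 488 nm excitation read lipid droplets at 500-530 nm and cells at 575-640 nm. Percent activity was relative to 20 uM Triacsin C.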
On the % scale 0 is the no-effect control and ±100 the full control effect; potency means the concentration at half of the fitted maximal effect.

| SMILES | lipid storage change, negative = inhibition | Potency | outcome |
| --- | --- | --- | --- |
| O=C(COc1ccc(Br)cc1)N(Cc1ccccc1)c1ccccn1 | inconclusive: -96.4% | – | – |
| Cc1cc(N/N=C/c2c(O)ccc3ccccc23)nc(-c2ccccc2O)n1 | inconclusive: 8.94% | – | – |
| Cc1cc(NC(=O)Nc2ccccc2F)ccc1Br | inconclusive: -22.1% | – | – |
| Cc1ccc(NC(=O)CS(=O)(=O)c2cn(C)c3ccccc23)c(C)c1 | inconclusive: 15.4% | – | – |
| O=C(NCc1ccc(F)cc1)NC(=O)c1ccc(Cl)cc1 | – | inconclusive: 11.6 µM [activator, single point] | – |
| O=C(CC(c1ccc(F)cc1)c1ccco1)N1CCOCC1 (centres undefined) | inconclusive: -14.4% | – | – |
| Cc1ccc(NC(=O)c2ccc(CSc3nnc(-c4ccncc4)n3C)cc2)cc1 | inconclusive: 8.71% | – | – |
| COc1ccccc1N1CCN(C(=O)c2cccc(S(=O)(=O)N3CCCCCC3)c2)CC1 | inconclusive: -17.4% | – | – |
| O=C(COC(=O)c1cccs1)Nc1ccccc1C(F)(F)F | inactive: -1.51% | – | – |
| COc1nc(Nc2ccc([N+](=O)[O-])cc2)nc(NC(C)C)n1 | – | inconclusive: 0.0046 µM [falling, full curve, poor fit] | – |
| O=C(CCSc1ccccc1)NNC(=O)c1ccccc1F | inconclusive: 0.145% | – | – |
| O=C(Nc1nccs1)c1ccc(-c2ccc([N+](=O)[O-])cc2)o1 | inconclusive: -12.5% | – | – |
| O=C(CCn1cnc2ccccc21)N=Nc1c(O)[nH]c2ccccc12 | – | inconclusive: 2.59 µM [activator, full curve] | – |
| CCOC(=O)N1CCN(C(=O)CN(c2cccc(C)c2)S(=O)(=O)c2ccccc2)CC1 | – | inconclusive: 0.092 µM [activator, full curve] | – |
| O=C(Nc1ccc(Br)cc1)c1ccc(F)c(S(=O)(=O)NCc2cccs2)c1 | inconclusive: -55.1% | – | – |
| CCCCCNC(=O)c1cccnc1SCC(=O)Nc1ccccc1OC | inactive: 6.16% | – | – |
| CCOc1ccccc1Oc1c(C)oc2cc(OC(=O)N3CCOCC3)ccc2c1=O | inconclusive: -12.4% | – | – |
| O=C(Nc1ccc(OCc2ccccc2Cl)cc1)c1cccnc1 | – | inconclusive: 1.84 µM [activator, partial curve] | – |
| O=C1CC(N2CCC(c3nc4ccccc4[nH]3)CC2)C(=O)N1Cc1ccccc1 (centres undefined) | – | inconclusive: 0.517 µM [cytotoxic, single point] | – |
| O=C(CSc1nnc(-c2ccccn2)o1)Nc1ccccc1C(F)(F)F | inconclusive: 306% | – | – |
| Cc1csc(CN(C)C(=O)CC2C(=O)NCCN2Cc2ccc(F)cc2Cl)n1 (centres undefined) | – | inconclusive: 0.58 µM [activator, single point] | – |
| CC(NC(=O)CN(C1CCCCC1)S(C)(=O)=O)c1ccccc1 (centres undefined) | inactive: -21.2% | – | – |
| O=C(O)c1ccc(-n2nncc2-c2ccccc2)cc1 | – | inconclusive: 1.84 µM [falling, full curve, poor fit] | – |
| CC(C)C[C@H](NC(=O)N1CCn2c1nc1ccccc12)C(=O)N[C@@H](C(=O)O)c1ccccc1 | inconclusive: 72.5% | – | – |
| COC(=O)CNc1c(-c2ccccc2)nc2ccc(Br)cn12 | inconclusive: -32.3% | – | – |
| Cn1cnc2c1c(=O)n(Cc1ccc(Cl)cc1Cl)c(=O)n2C | inconclusive: 1.1% | – | – |
| COC(=O)c1ccc(C(=O)OC)c(NC(=S)N2CCCC(CO)C2)c1 (centres undefined) | – | inconclusive: 18.4 µM [activator, single point] | – |

| SMILES | lipid storage change, negative = inhibition | Potency | outcome |
| --- | --- | --- | --- |
| O=C(Nc1ccn(Cc2ccc(Cl)cc2)n1)c1ccccc1 | inconclusive: 43% | – | – |
| COc1ccc(OCC(=O)N2CC3(C)CC2CC(C)(C)C3)cc1 (centres undefined) | – | – | inactive [at 46.1 µM] |
| CCC1(CC)NC(=O)N(CC(=O)N2N=C(c3ccc(Cl)cc3)CC2c2ccco2)C1=O (centres undefined) | inconclusive: 30.3% | – | – |
| Oc1nc(Nc2ccc(F)cc2)sc1/C=C1\C=Nc2ccccc21 | inactive: -6.38% | – | – |
| CCOC(=O)C1CCN(S(=O)(=O)c2c(C(=O)N3CCCCC3)c(C)n(C)c2C)CC1 | – | inconclusive: 29.1 µM [activator, single point] | – |
| Cc1cc(=O)n2[nH]c(SCc3ccccc3Cl)nc2n1 | inconclusive: 19.2% | – | – |
| COc1c(Cl)cccc1-c1cn2ccc(C)cc2n1 | inconclusive: 13% | – | – |
| CCN(CC(=O)Nc1ccccc1C(F)(F)F)C(=O)c1cc(S(=O)(=O)N(C)C)ccc1N1CCCC1 | inconclusive: -12.6% | – | – |
| Cc1cc(C)n2c(SCc3ccc(Br)cc3)nnc2n1 | inconclusive: 29.5% | – | – |
| CCOCC(=O)NCc1ccc2c(c1)cc(C)n2C | inconclusive: 16.4% | – | – |
| O=c1c2c3c(sc2n2cnnc2n1-c1ccccc1)N(Cc1ccccc1)CCC3 | inconclusive: 46.1% | – | – |
| COC(=O)C1=C(CS(=O)(=O)c2ccccc2)NC(=O)NC1c1ccc(OC)c(OC)c1 (centres undefined) | inconclusive: 15.4% | – | – |
| O=C(c1ccc(N2C(=O)C3C4c5ccccc5C(c5ccccc54)C3C2=O)cc1)N1CCOCC1 (centres undefined) | – | inconclusive: 6.51 µM [falling, single point] | – |
| Cc1ccc(OC(C)C(=O)Nc2ccncc2)cc1 (centres undefined) | inconclusive: -29.1% | – | – |
| COc1ccc(C(=O)/C=C/c2ccc(OC3CSC3)cc2)cc1 | – | inconclusive: 18.4 µM [activator, single point] | – |
| O=C(NCCCl)c1ccc(OCc2ccccc2)cc1Cl | inconclusive: 6.72% | – | – |
| CC(NC(=S)Nc1ccccc1C(F)(F)F)C1CC2CCC1C2 (centres undefined) | – | inconclusive: 4.61 µM [falling, single point] | – |
| N#CCCN1CCN(C(=O)c2c(N)no[n+]2[O-])CC1 | inconclusive: -30.1% | – | – |
| O=C(CN1C(=O)c2ccc([N+](=O)[O-])cc2C1=O)NCC1CCCO1 (centres undefined) | inconclusive: 24.4% | – | – |
| COC(=O)c1cn(C(=O)c2ccccc2Cl)c2ccccc12 | inconclusive: 8.67% | – | – |
| COc1cccc(N(CC(=O)NC2CCCC2)C(=O)Cn2nnc(-c3ccc(C)o3)n2)c1 | inconclusive: 67.9% | – | – |
| CCC1CCCCN1C(=O)C(=O)c1cn(CC(=O)N(CC)CC)c2ccccc12 (centres undefined) | inconclusive: -18.4% | – | – |
| Cc1noc(C)c1C(=O)N1CCN(S(=O)(=O)c2ccc(F)cc2)CC1 | – | inconclusive: 6.51 µM [cytotoxic, single point] | – |
| Cc1ccc(S(=O)(=O)NC2c3cccc4cccc(c34)C2Sc2nc(C)cc(C)n2)cc1 (centres undefined) | inconclusive: -85.4% | – | – |
| Cc1ccc(OCCCC(=O)NC(C)c2ccccc2)cc1 (centres undefined) | inconclusive: 0.5% | – | – |
| COc1ccc2cc(C(=O)/C=C/c3cc(OC)c(OC)c(OC)c3)ccc2c1 | – | inconclusive: 25.9 µM [falling, single point] | – |
| Cc1ccc(S(=O)(=O)N2CCCCC2)cc1NC(=O)c1cccnc1 | – | inconclusive: 6.51 µM [activator, single point] | – |

As a short view, part of the list above:

| SMILES | lipid storage change, negative = inhibition | Potency | outcome |
| --- | --- | --- | --- |
| CCN(CC(=O)Nc1ccccc1C(F)(F)F)C(=O)c1cc(S(=O)(=O)N(C)C)ccc1N1CCCC1 | inconclusive: -12.6% | – | – |
| Cc1cc(C)n2c(SCc3ccc(Br)cc3)nnc2n1 | inconclusive: 29.5% | – | – |
| CCOCC(=O)NCc1ccc2c(c1)cc(C)n2C | inconclusive: 16.4% | – | – |
| O=c1c2c3c(sc2n2cnnc2n1-c1ccccc1)N(Cc1ccccc1)CCC3 | inconclusive: 46.1% | – | – |

Two compounds picked at random from the list so far:

| SMILES | lipid storage change, negative = inhibition | Potency | outcome |
| --- | --- | --- | --- |
| O=C(CN1C(=O)c2ccc([N+](=O)[O-])cc2C1=O)NCC1CCCO1 (centres undefined) | inconclusive: 24.4% | – | – |
| CCOC(=O)C1CCN(S(=O)(=O)c2c(C(=O)N3CCCCC3)c(C)n(C)c2C)CC1 | – | inconclusive: 29.1 µM [activator, single point] | – |

Further structures

| SMILES | lipid storage change, negative = inhibition | Potency | outcome |
| --- | --- | --- | --- |
| CCOC(=O)c1ccc(OCCOc2ccccc2C)cc1 | inconclusive: 56.4% | – | – |
| Cc1nc2c(-c3ccccc3)cnn2c(N2CCOCC2)c1C | – | active: 2.91 µM | – |
| CS(=O)(=O)Nc1cccc(C2=NN(C(=O)c3ccco3)C(c3cccs3)C2)c1 (centres undefined) | – | inconclusive: 2.06 µM [activator, partial curve, poor fit] | – |
| COCCN1CCN(c2cc(-c3ccccc3)nc3cc(-c4cccc(F)c4)nn23)CC1 | inconclusive: -27.8% | – | – |
| O=C1c2cccc(OCc3ccc(F)cc3)c2CCN1Cc1ccc(F)cc1 | inconclusive: -40.5% | – | – |
| CC(=O)c1c(C)[nH]c(C(=O)CSc2nnc(-c3ccccc3)o2)c1C | inconclusive: -20.2% | – | – |
| CN(C)S(=O)(=O)N(CC(=O)NCCSCc1ccccc1)c1ccccc1 | inconclusive: -14.7% | – | – |
| CC(CC(=O)Nc1ccc(C(N)=O)cc1)c1ccccc1 (centres undefined) | inconclusive: 18.8% | – | – |
| Cc1cc(C)n(-c2ccc(C(=O)OCC(=O)NCc3ccco3)cc2)n1 | inconclusive: 69.8% | – | – |
| O=C(Nc1cc2c(cc1Br)OCCO2)c1cccnc1 | inactive: 29.5% | – | – |
| CC(C)c1nc(SCC(=O)Nc2c[nH]c(=O)[nH]c2=O)c2cnn(-c3ccccc3)c2n1 | inconclusive: 8.66% | – | – |
| COc1ccccc1S(=O)(=O)CC(O)COc1ccccc1Cl (centres undefined) | inconclusive: -19.1% | – | – |
| O=C(/C=C/c1ccc2c(c1)OCO2)NCCCN1CCOCC1 | inconclusive: 26.5% | – | – |
| C=CCn1c(SCc2cc(=O)n3ccsc3n2)nc2sc(C)c(C)c2c1=O | – | inconclusive: 0.146 µM [rising, full curve, poor fit] | – |
| O=c1cc(-c2ccccc2Cl)oc2c(NS(=O)(=O)c3cccc4nsnc34)ccc(O)c12 | inconclusive: 18.7% | – | – |
| CCOC(=O)Cc1csc(NC(=O)COc2ccc3c(C)cc(=O)oc3c2)n1 | inconclusive: -18.4% | – | – |
| COc1ccc(-n2c(SCC(=O)Nc3cc(C)on3)nc3c([nH]c4ccccc43)c2=O)cc1OC | inconclusive: 7.83% | – | – |
| COc1ccc(/C=N/NC(=O)c2ccn[nH]2)cc1Cn1cc([N+](=O)[O-])cn1 | – | inconclusive: 0.731 µM [activator, partial curve, poor fit] | – |
| Cc1ccc2nc3n(c2c1)CCCN3 | inconclusive: 10.4% | – | – |
| O=C(NCCC1=CCCCC1)C1CCN(C(=O)Cc2ccccc2)CC1 | – | inconclusive: 4.11 µM [falling, partial curve] | – |
| CC(C)CC(=O)N1CCN(C(=O)CCC2CCCC2)CC1 | inconclusive: 3.11% | – | – |
| Cn1cc(SCC(=O)N2CCCc3ccccc32)c2ccccc21 | inconclusive: 37.6% | – | – |
| Cc1cccc(-c2nc(CS(=O)CC(=O)NCC3CCCO3)c(C)o2)c1 (centres undefined) | inconclusive: 27.1% | – | – |
| CC(C)C[C@H](NC(=O)c1nc[nH]c1C(=O)N(C)Cc1ccccc1)C(=O)OCc1ccccc1 | inconclusive: -30.9% | – | – |
| Cc1cc(C)c2nc(N(CCN(C)C)C(=O)c3ccc4ccccc4c3)sc2c1 | – | inconclusive: 18.4 µM [activator, partial curve] | – |

Reference: PubChem BioAssay AID2685 (National Center for Advancing Translational Sciences (NCATS), 2010)
